Assay results: doi:10.1101/2023.07.31.551310
No constants are given. Whether binding was seen depends on the method and setting. For part of these data: Binding seen in cells or lysates may run through a third protein. Some results given as binding are weak or reduced against the parent protein; the word gives no strength. For part of these data: Sequences can lack the tags named with a protein.

Chains of the proteins cited; added tags and fusions are not shown. Lines headed by an entry give the natural chain unless they say otherwise; changes in a name come on top. Residues count along the entry.
UniProt F4IXW2: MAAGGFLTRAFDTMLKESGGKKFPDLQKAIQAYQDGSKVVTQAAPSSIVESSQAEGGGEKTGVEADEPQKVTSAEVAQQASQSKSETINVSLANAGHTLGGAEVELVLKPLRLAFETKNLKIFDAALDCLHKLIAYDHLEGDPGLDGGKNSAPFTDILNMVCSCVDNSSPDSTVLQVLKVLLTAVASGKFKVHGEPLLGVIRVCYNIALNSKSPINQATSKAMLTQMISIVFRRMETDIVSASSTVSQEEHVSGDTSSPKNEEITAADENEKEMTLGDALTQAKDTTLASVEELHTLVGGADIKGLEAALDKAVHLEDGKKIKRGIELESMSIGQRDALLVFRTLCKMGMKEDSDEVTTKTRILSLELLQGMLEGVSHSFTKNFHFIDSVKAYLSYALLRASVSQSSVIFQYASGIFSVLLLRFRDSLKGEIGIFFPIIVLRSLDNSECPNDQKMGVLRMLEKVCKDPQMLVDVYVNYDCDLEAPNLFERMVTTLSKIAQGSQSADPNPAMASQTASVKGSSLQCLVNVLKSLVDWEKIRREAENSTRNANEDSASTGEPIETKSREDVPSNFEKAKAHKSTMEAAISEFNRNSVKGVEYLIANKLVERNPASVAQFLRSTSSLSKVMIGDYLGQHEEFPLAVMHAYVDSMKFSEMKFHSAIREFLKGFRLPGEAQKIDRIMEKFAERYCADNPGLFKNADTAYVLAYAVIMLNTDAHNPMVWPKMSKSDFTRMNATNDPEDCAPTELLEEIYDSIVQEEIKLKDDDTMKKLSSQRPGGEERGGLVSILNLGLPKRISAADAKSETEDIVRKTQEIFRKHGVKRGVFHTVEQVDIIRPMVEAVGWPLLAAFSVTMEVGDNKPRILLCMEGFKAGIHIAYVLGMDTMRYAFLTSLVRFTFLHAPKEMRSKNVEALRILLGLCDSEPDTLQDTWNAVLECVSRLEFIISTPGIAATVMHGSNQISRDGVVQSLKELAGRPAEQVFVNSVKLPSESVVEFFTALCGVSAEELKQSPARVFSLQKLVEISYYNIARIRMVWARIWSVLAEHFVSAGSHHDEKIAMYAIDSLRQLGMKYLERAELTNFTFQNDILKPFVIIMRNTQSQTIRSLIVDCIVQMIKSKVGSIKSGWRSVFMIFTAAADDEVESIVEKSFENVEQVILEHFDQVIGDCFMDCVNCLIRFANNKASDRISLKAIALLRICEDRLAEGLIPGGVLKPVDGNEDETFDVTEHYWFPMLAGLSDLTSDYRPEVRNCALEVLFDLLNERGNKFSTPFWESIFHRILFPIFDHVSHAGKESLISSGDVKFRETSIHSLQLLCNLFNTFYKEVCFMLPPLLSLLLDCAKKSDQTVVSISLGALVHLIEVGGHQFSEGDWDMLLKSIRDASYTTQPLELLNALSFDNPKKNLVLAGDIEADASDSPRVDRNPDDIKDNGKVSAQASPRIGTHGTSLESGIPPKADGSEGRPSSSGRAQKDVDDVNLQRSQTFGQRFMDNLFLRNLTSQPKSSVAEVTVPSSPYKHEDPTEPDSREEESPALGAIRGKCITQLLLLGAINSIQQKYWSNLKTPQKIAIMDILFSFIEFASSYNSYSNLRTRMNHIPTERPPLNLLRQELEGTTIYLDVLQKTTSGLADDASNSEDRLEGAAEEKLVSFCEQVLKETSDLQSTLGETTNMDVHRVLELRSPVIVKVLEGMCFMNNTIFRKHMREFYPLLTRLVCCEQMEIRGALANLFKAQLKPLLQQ
BD::MIN7-M (aa571–1207, including the Sec7 catalytic domain): residues 571-1207 of F4IXW2
BD::MIN7-C (aa1208–1739): residues 1208-1739 of F4IXW2

Legend:
[1] = target: MIN7 (Arabidopsis) (UniProt F4IXW2); assay: co-IP; targeted co-IP with MIN7- and MIN10-specific antibodies (Fig. S3); material and conditions not shown
[2] = target: BD::MIN7-M (aa571–1207, including the Sec7 catalytic domain) (Arabidopsis) (UniProt F4IXW2); assay: two-hybrid; LexA-based Y2H system (Clontech); BD fusions from pGILDA, AD fusions from pB42AD; strain EGY48 with lacZ reporter plasmid; minimal medium with galactose and X-gal; blue colour indicates interaction
[3] = target: BD::MIN7-C (aa1208–1739) (Arabidopsis) (UniProt F4IXW2); assay: as above

B1: MIN10 (14-3-3 KAPPA) (protein, UniProt P48348 1-248)
chain: MATTLSRDQYVYMAKLAEQAERYEEMVQFMEQLVSGATPAGELTVEERNLLSVAYKNVIGSLRAAWRIVSSIEQKEESRKNEEHVSLVKDYRSKVETELSSICSGILRLLDSHLIPSATASESKVFYLKMKGDYHRYLAEFKSGDERKTAAEDTMIAYKAAQDVAVADLAPTHPIRLGLALNFSVFYYEILNSSEKACSMAKQAFEEAIAELDTLGEESYKDSTLIMQLLRDNLTLWTSDMQEQMDEA
binding [1]: binds

B2: AD::MIN10 (full length 14-3-3 kappa) (protein, UniProt P48348 1-248)
chain: B1 chain
binding [2]: binds

B3: AD::HLB1 (full-length HLB1) (protein, UniProt Q9FHY8 1-565)
chain: MADTVEEPQLQNGAAPAESETEQNPIPEPQLQTEPKLTGEIPEIEADLTPEEVQSEVTDAKPEEVQSEVKPEEVKTVVTDAKPEEAQSEVKPEEVQSVVTDTKPDLTDVDLSPGGSEEIPIRSTEVEQESTTSVLKKDDDGNKTFTMRELLSELKSEEGDGTPHSSASPFSRESASQPAENNPAMDLINRIQVNDEEGRSRQRVLAFAARKYASAIERNPDDHDALYNWALILQESADNVSPDSVSPSKDDLLEEACKKYDEATRLCPTLYDAYYNWAIAISDRAKIRGRTKEAEELWEQAADNYEKAVQLNWNSSQALNNWGLVLQELSQIVPAREKEKVVRTAISKFRAAIRLQFDFHRAIYNLGTVLYGLAEDTLRTGGSGNGKDMPPGELYSQSAIYIAAAHSLKPSYSVYSSALRLVRSMLPLPHLKVGYLTAPPVGNSLAPHSDWKRTEFELNHERLLQVLKPEPREMGRNLSGKAETMSTNVERKTVKVNITEIVSVTPCADLTLPPGAGLCIDTIHGPVFLVADSWESLDGWLDAIRLVYTIYARGKSDVLAGIITG
binding [3]: binds
